The whole screen tested about 340,000 compounds, of which about 170 (0.05%) were called active. The inconclusive results got no clear call from the source; some entries with a clear call stand among them for comparison. Calls come from the whole dose curve; as a rule, active = well fitted inhibition curve with a large enough effect in the signal ratio, with a control signal flat (not every such curve was filed as active); inconclusive = small, poorly fitted or top-dose-only effect, or effect the other way, or a change in a side signal; inactive = flat fitted curve, though single readings scatter; the % refers to the signal ratio. Potencies beside an inconclusive call are fits to weak or partial responses and may not hold up.
assay: qHTS Assay to Find Inhibitors of Chronic Active B-Cell Receptor Signaling; details: ABC-DLBCL IkBa-CBG/CBR reporter, luminescence ratio (green luciferase fused to IkBa over red control in TMD8 lymphoma cells), 4 h; activity change, negative = inhibition: at 46.1 µM (top of the series);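 for activity change, negative = inhibition: plate controls were basal doxycycline-induced cells for no effect and cells given 10 µM MG132 for full effect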
Procedure, shortened: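 TMD8 human ABC-DLBCL cells with doxycycline-inducible IκBα–green luciferase fusion and unfused red luciferase, in 0.5% FBS medium; compounds up to 46 uM, 4 h at 37C. Green/red luminescence ratio, filter-overlap corrected, fitted to concentration-response curves.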
Potency is the fitted concentration of half-maximal effect.

SMILES | Potency | activity change, negative = inhibition
O=C(Nc1cccnc1)Nc1ccc2c(c1)OCO2 | inconclusive: 29.1 µM [falling, single point] | –
Cc1nc(Nc2cnc(/C=C/c3cc(C(=O)Nc4cccc(C(F)(F)F)c4)ccc3C)cn2)cc(N2CCNCC2)n1 | inconclusive: 17.8 µM [falling, partial curve, poor fit] | –
COc1ccccc1CNC(=O)CSc1ccc(-c2cccc([N+](=O)[O-])c2)nn1 | – | inconclusive: 4.36%
Cc1ccc(S(=O)(=O)N2CCCCC2)cc1NC(=O)c1ccccc1Cl | – | inconclusive: -0.625%
C=CCOc1ccc(CNC(C)(C)C)cc1OC | – | inconclusive: 1.93%
Cc1ccc(N2C(=O)[C@@H]3[C@H](C2=O)C2CCCN2[C@@H]3C(=O)c2ccccc2)cc1 (some centres not stated) | inconclusive: 10 µM [falling, partial curve, poor fit] | –
COc1ccccc1CNC(=O)c1c[nH]c2ccc(S(=O)(=O)Nc3cc(C)cc(C)c3)cc2c1=O | – | inactive: -2.45%
Cc1ccc(Nc2ncccc2C(N)=O)cc1 | – | inconclusive: 2.84%
CCOc1ccccc1Nc1cc(C)nc2nnnn12 | – | inconclusive: 9.77%
COc1ccccc1OCC(=O)Nc1ccc(O)cc1C(=O)O | inconclusive: 29.1 µM [rising, single point] | –
C=CCNC(=O)/C(C#N)=C/c1c(C)nn(-c2ccccc2)c1Cl | inconclusive: 29.1 µM [falling, single point] | –
Cc1cc(C(=O)CSc2nnnn2-c2ccc(Cl)cc2)c(C)n1CC1CCCO1 (configuration not stated) | – | inconclusive: 8.21%
Cc1cccc(C(=O)Nc2nnc(-c3cccnc3)o2)c1 | inconclusive: 31.6 µM [falling, partial curve] | –
N/C(=N\OC(=O)/C=C/c1ccccc1)c1ccncc1 | inconclusive: 12.6 µM [falling, partial curve] | –
CCOC(=O)c1[nH]c(C)c(C(=O)NCc2ccc(C)cc2)c1C | – | inactive: -6.85%
COCCN(C(=S)Nc1ccc(OC)cc1)C(C)c1cccs1 (configuration not stated) | – | inactive: -1.14%
Cc1ccc(-c2nnc(Nc3ccc(C(N)=O)cc3)c3ccccc23)cc1S(=O)(=O)NCC1CCCO1 (configuration not stated) | inconclusive: 7.31 µM [falling, partial curve] | –
CCOC(=O)C1(CCCc2ccccc2)CCN(S(C)(=O)=O)CC1 | – | inactive: -3.55%
CC1CCc2nc(NC(=O)Nc3ccc4c(c3)OCO4)sc2C1 (configuration not stated) | inconclusive: 8.2 µM [falling, partial curve] | –
COc1ccc(N2CCN(C(=O)COC(=O)c3cnccn3)CC2)cc1 | – | inconclusive: 7.93%
Cc1c(C#N)c(O)[nH]c(=O)c1N=Nc1ccc(S(N)(=O)=O)cc1 | – | inactive: 19%
Cc1nnc(SCC(=O)Nc2ccccc2N2CCOCC2)s1 | – | inconclusive: -10.9%
CC(C)(C)C(=O)Oc1cccc(Nc2ncnc3ccccc23)c1 | inconclusive: 35.5 µM [falling, single point] | –
COc1cc(C(CC(=O)Nc2ccc(C)cn2)N2Cc3ccccc3C2=O)cc(OC)c1OC (configuration not stated) | – | inconclusive: 3.43%
CCCCc1ccc(NC(=S)Nc2ccc(Cl)c(S(=O)(=O)N(C)C)c2)cc1 | – | inactive: -0.121%
CCOc1ccc2nc(COC(=O)c3ccncc3)c(C(=O)c3ccccc3)[n+]([O-])c2c1 | – | inconclusive: 21.8%

3 compounds picked at random from those above, as already listed:
SMILES | Potency | activity change, negative = inhibition
CCOC(=O)c1[nH]c(C)c(C(=O)NCc2ccc(C)cc2)c1C | – | inactive: -6.85%
Cc1c(C#N)c(O)[nH]c(=O)c1N=Nc1ccc(S(N)(=O)=O)cc1 | – | inactive: 19%
CCOc1ccc2nc(COC(=O)c3ccncc3)c(C(=O)c3ccccc3)[n+]([O-])c2c1 | – | inconclusive: 21.8%

The list continues:

SMILES | Potency | activity change, negative = inhibition
COc1cccc(-n2nc(-c3ccnn3-c3ccc(C)cc3)c(=O)n(C)c2=O)c1 | – | inconclusive: 20.8%
O=C(NCc1ccccc1)c1cccnc1Sc1ccccc1 | – | inconclusive: -2.35%
O=C1COC(c2ccccc2)=CN1Cc1ccccc1 | – | inactive: 0.484%
CC(=O)Nc1cc2nc(C)n(Cc3ccccc3[N+](=O)[O-])c2nc1C | – | inconclusive: 1.74%
Cn1c(=O)c2c(ncn2CC(=O)N/N=C/C=C/c2ccccc2[N+](=O)[O-])n(C)c1=O | – | inconclusive: -0.909%
CCN1CCN(Cc2oc(CO)cc(=O)c2O)CC1 | inconclusive: 0.461 µM [rising, full curve, poor fit] | –
N#C/C(=C(/O)c1ccc([N+](=O)[O-])s1)c1nc2ccccc2[nH]1 | inconclusive: 6.31 µM [falling, partial curve] | –
NC(=O)c1ccc(Cn2c(C(=O)c3cc(Cl)c(N)c(Cl)c3)c3ccccc3[n+]2[O-])cc1 | inconclusive: 29.1 µM [cytotoxic, single point] | –
COC(=O)c1c(NC(=O)COC(=O)[C@@H](NS(=O)(=O)c2ccccc2)C(C)C)sc2c1CCC2 | inconclusive: 16.4 µM [rising, partial curve, poor fit] | –
O=C(COC(=O)c1ccc(NS(=O)(=O)c2cccs2)cc1)Nc1nc2c(F)c(F)c(F)cc2s1 | – | inconclusive: -1.85%
COc1ccc(NS(=O)(=O)c2cc(C(=O)N3CCN(C(C)=O)CC3)ccc2Cl)cc1 | – | inactive: -0.382%
Cc1cc(C)cc(C(=O)N2CCN(c3ccccn3)CC2)c1 | – | inconclusive: 14.8%
c1ccc2sc(Sc3ncnc4sccc34)nc2c1 | inconclusive: 16.4 µM [falling, partial curve, poor fit] | –
Cc1cccc(OCC2=N/C(=C\N(C)C)C(=O)O2)c1 | – | inconclusive: 3.42%
Cc1c(NC(=O)c2cnn3c(C(F)(F)F)cc(-c4ccco4)nc23)c(=O)n(-c2ccccc2)n1C | – | inconclusive: 2.22%
O=C(Nc1cccc(S(=O)(=O)N2CCCCC2)c1)c1cc(=O)[nH]c2ccccc12 | – | inconclusive: -1.79%
CCN1CCN(c2ccc(S(=O)(=O)N3CCOCC3)cc2NC(=O)c2cc(Cl)nc3ccccc23)CC1 | – | inactive: 0.0234%
Cc1cc2ccc(C)c(C)c2nc1SCC#N | – | inconclusive: -1.66%
CCOC(=O)c1nnc(-c2ccc(C)cc2)nc1Sc1ccc(Cl)cc1 | – | inconclusive: -1.76%
Fc1cccc(CCN2C(=S)NC[C@@H]2Cc2ccccc2)c1 | – | inactive: -12.4%
CC(C)c1cccc(-c2ccc3c(c2)S(=O)(=O)c2cccc(C(=O)NCc4ccccc4)c2C3=O)c1 | – | inactive: 2.42%
Cc1cc(C)n2nc(C(=O)OCC(=O)N(C)C3CCS(=O)(=O)C3)nc2n1 (configuration not stated) | – | inactive: 0.634%
O=C(NC1CCCCC1)C(c1ccc(Cl)cc1)N(C(=O)c1cnccn1)c1ccc2c(c1)OCO2 (configuration not stated) | – | inconclusive: -2.92%
COc1ccc(NC(=O)/C(C#N)=C\c2ccc(-c3cccc(C(=O)O)c3C)o2)cc1 | inconclusive: 35.5 µM [falling, single point] | –
O=[N+]([O-])c1cccc(-c2noc(-c3ccco3)n2)c1 | – | inconclusive: 10.5%
O=C(O)C(c1ccccc1)N1C(=O)/C(=C\c2ccc(-c3ccccc3Cl)o2)SC1=S (configuration not stated) | – | inconclusive: -2.96%

SMILES | Potency | activity change, negative = inhibition
COc1ccc(Nc2nc(-c3cccnc3)cs2)c(OC)c1 | inconclusive: 35.5 µM [falling, single point] | –
CN(Cc1ccccc1)C(=O)COc1cc(Cl)ccc1Cl | – | inactive: 4.69%
Cc1ccc(OCCn2c(C)c(/C=N/n3cnnc3)c3ccccc32)cc1 | – | inconclusive: -8.89%
COc1ccc(OCC(=O)c2c(O)c3ccccc3oc2=O)cc1 | inconclusive: 13 µM [falling, partial curve] | –
COc1ccc(NC(=O)C2CCCN(S(C)(=O)=O)C2)cc1Cl (configuration not stated) | – | inconclusive: 1.47%
CC(C(=O)N1CCN(Cc2ccc3c(c2)OCO3)CC1)c1ccc([N+](=O)[O-])cc1 (configuration not stated) | – | inactive: -2.1%
COC/C=C/C1=CC2=CC(=O)C(C)(OC(=O)c3cnc4ccccc4n3)C(=O)C2=CN1CCCCO (configuration not stated) | – | inconclusive: 0.0341%
COc1cc(NC(C)C(=O)N2CC(C)OC(C)C2)cc(OC)c1 (configuration not stated) | inconclusive: 10.3 µM [falling, partial curve, poor fit] | –
CC(C)C[C@H](NC(=O)c1nc[nH]c1C(=O)N1CCC(C)CC1)C(=O)OCc1ccccc1 | – | inactive: -14.9%
Cc1ccc2nc(SCC(=O)NCC3CCCO3)c(C#N)cc2c1 (configuration not stated) | – | inactive: -0.847%
OCC(O)CNC(=S)NC1CCCCC1 (configuration not stated) | – | inconclusive: 1.33%
COC(=O)C1=C(C)N=C2SC(C)C(=O)N2C1c1cccc(F)c1 (configuration not stated) | – | inconclusive: 3.92%
CCN(CC)S(=O)(=O)c1ccc(C)c(NC(=O)COC(=O)CNC(=O)c2ccc(C(C)(C)C)cc2)c1 | inconclusive: 23.1 µM [falling, partial curve, poor fit] | –
Cc1ccccc1Cn1cc(S(=O)(=O)CC(=O)Nc2nccs2)c2ccccc21 | inconclusive: 16.4 µM [falling, partial curve, poor fit] | –
Cc1cc(SCc2ccc([N+](=O)[O-])cc2)nc(=O)[nH]1 | – | inconclusive: 13.4%
COc1ccc(OC)c(N2C(=O)[C@@H]3C(c4ccccc4Cl)=NO[C@@H]3C2=O)c1 | – | inactive: -3.49%
COc1ccc2oc(=O)c(/C(C)=N/NC(=O)c3ccncc3)cc2c1 | – | inconclusive: -10.5%
Cc1cccc(N2C(=O)CC(N(O)c3ccccc3)C2=O)c1 (configuration not stated) | inconclusive: 11.2 µM [falling, partial curve] | –
CC(=O)c1cccc(N(C(=O)CNC(=O)c2ccco2)C(C(=O)NCC2CCCO2)c2ccccc2)c1 (configuration not stated) | – | inactive: -4.71%
CC1Cc2ccccc2N1C(=O)CNCCCN(C)C (configuration not stated) | – | inactive: 6.45%
Cn1c(N)c(C(=O)COC(=O)C2CCC(C(C)(C)C)CC2)c(=O)n(C)c1=O (configuration not stated) | inconclusive: 4.11 µM [rising, partial curve, poor fit] | –
COc1ccc(S(=O)(=O)N2CCC(C(=O)NCc3ccccn3)CC2)cc1Cl | – | inconclusive: -22.4%
CCCCN1C(=O)/C(=C/C=C2\SCCN2C)SC1=S | – | inconclusive: 13%
Cc1ccc(S(=O)(=O)N(Cc2ccccc2)c2ccccc2C(=O)NCc2ccco2)cc1 | – | inconclusive: 8.89%
CCCCCCCC(=O)NN=C1CCN(Cc2ccccc2)CC1 | inconclusive: 5.17 µM [falling, single point] | –

— PubChem BioAssay AID493014 (National Center for Advancing Translational Sciences (NCATS), 2011)
